Record: PubChem BioAssay AID1259425 (University of Nebraska Medical Center, 2018)
In all, the deposit lists about 14,000 reagents; this is a part drawn at random. Not all columns of the deposit are shown. No sequences are given here. Not given: the time to read-out.

Test: 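Find knockdowns that reproduce the gene expression pattern seen when KSR1 is lost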 (primary screen)
Cells: HCT116 human colon cancer cells
Knock-down reagent: siRNA pool against human genes, 50 nM siRNA
Measurement: 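After 50 nM siRNA pool, branched-DNA assay measures six marker transcripts per well, minus blank, normalised to the geometric mean of two housekeeping transcripts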
Scale: BNIP3L mRNA: higher = more BNIP3L transcript after knockdown

ERN1 [SID363992697] | BNIP3L mRNA, set 1: 0.304
DDR1 [SID363993166] | BNIP3L mRNA, set 1: 0.163
NOD1 [SID363996935] | BNIP3L mRNA, set 1: 0.0679
LRRC8B [SID363999433] | BNIP3L mRNA, set 1: 0.109
MPV17L2 [SID364004124] | BNIP3L mRNA, set 1: 0.243
ATP5PO [SID363992919] | BNIP3L mRNA, set 1: 0.0609
LIMD2 [SID364003367] | BNIP3L mRNA, set 1: 0.0349
SNIP1 [SID364002987] | BNIP3L mRNA, set 1: 0.148
WDR25 [SID364002838] | BNIP3L mRNA, set 1: 0.0957
TTC33 [SID363998270] | BNIP3L mRNA, set 1: 0.0615
AKAP14 [SID364004922] | BNIP3L mRNA, set 1: 0.194
SPTBN4 [SID364001922] | BNIP3L mRNA, set 1: 0.38
RERG [SID364004269] | BNIP3L mRNA, set 1: 0.0724

Laid out differently: entries from further up
Gene | PubChem SID | BNIP3L mRNA, set 1
SNIP1 | SID364002987 | 0.148
WDR25 | SID364002838 | 0.0957

Continued.
AP2M1 [SID363995078] | BNIP3L mRNA, set 1: 0.215
PAM16 [SID363999842] | BNIP3L mRNA, set 1: 0.121
JPH3 [SID364001758] | BNIP3L mRNA, set 1: 0.153
OCLN [SID363993709] | BNIP3L mRNA, set 1: 0.412
ADGRG3 [SID364004804] | BNIP3L mRNA, set 1: 0.243
MND1 [SID364003774] | BNIP3L mRNA, set 1: 0.154
GADD45A [SID363993137] | BNIP3L mRNA, set 1: 0.0476
FASTKD4 [SID363995707] | BNIP3L mRNA, set 1: 0.145
GNL3L [SID364001374] | BNIP3L mRNA, set 1: 0.0833
SPINT1 [SID363994779] | BNIP3L mRNA, set 1: 0.107
ZNF182 [SID364005278] | BNIP3L mRNA, set 1: 0.166
NAGA [SID363991595] | BNIP3L mRNA, set 1: 0.151
KCNK1 [SID363993444] | BNIP3L mRNA, set 1: 0.218
INPP4A [SID363992822] | BNIP3L mRNA, set 1: 0.144
CSF3R [SID363992053] | BNIP3L mRNA, set 1: 0.101
